For the assay, the target named is human CD3 on HuT-78 cells (human) (UniProt P07766). In words: flow cytometry, hybridoma supernatant on HuT-78 cells, Alexa 647 anti-human IgG. In general terms: In flow cytometry, cells or beads pass a laser one at a time.

By UniProt entry, the sequences of proteins in these tests, tags left out. Where a name states a change or a piece, a line headed by the entry shows the natural chain unless it says otherwise.
UniProt P07766: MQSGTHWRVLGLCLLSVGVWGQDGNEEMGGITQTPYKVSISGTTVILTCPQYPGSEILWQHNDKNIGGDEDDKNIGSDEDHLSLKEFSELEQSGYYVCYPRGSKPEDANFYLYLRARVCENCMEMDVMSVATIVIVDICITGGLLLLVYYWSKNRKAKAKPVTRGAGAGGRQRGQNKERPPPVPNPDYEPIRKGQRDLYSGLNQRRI

Results are given in words; binding and its absence hold for the method and conditions named. Some binding calls cover weakened binding; strength is not graded here.

B1: anti-CD3 monoclonal antibody KM14 (antibody, V domains shown)
VH: QVQLVESGGGVVQPGRSLRLSCEASGFTFSSHGMHWVRQAPGKGLEWVASIWYDGSKKYYADSVKGRFTISRDNSKNTLDLQMNSLRAEDTAVYYCAKTLYYYGSERAHGLDVWGQGTTVTVSS
VL: AIQLTQSPSSLSASVGDRVTITCRASQGISSALAWYQQKPGKAPNLLIYDASSLESGVPSRFSGSGSGTDFTLTISSLQPEDFATYYCQQFNSYPRTFGQGTKVEIK
Take B1: the binding result is recorded as “binds”.

The record behind these values is patent publication US20230406926A1.
